Results as given in PMC11600210.
These are yes or no findings as the source states them, for the method shown. In cells and extracts the contact can be indirect. Some entries that bind do so weakly or less than the wild type. For part of these data: Tags and fused reporters may be left off the sequences shown. Each block holds one binder with its values, some of them ahead of it.

How the values were obtained:
SEC31a‐FLAG = target: T1, SEC31a‐FLAG (UniProt O94979); experiment: co-IP; FLAG-tagged SEC31a and HA-tagged ATG9a in transfected cells, NP-40 lysate, immunoprecipitated with anti-FLAG or anti-HA on magnetic beads, western blot
T1 sequence: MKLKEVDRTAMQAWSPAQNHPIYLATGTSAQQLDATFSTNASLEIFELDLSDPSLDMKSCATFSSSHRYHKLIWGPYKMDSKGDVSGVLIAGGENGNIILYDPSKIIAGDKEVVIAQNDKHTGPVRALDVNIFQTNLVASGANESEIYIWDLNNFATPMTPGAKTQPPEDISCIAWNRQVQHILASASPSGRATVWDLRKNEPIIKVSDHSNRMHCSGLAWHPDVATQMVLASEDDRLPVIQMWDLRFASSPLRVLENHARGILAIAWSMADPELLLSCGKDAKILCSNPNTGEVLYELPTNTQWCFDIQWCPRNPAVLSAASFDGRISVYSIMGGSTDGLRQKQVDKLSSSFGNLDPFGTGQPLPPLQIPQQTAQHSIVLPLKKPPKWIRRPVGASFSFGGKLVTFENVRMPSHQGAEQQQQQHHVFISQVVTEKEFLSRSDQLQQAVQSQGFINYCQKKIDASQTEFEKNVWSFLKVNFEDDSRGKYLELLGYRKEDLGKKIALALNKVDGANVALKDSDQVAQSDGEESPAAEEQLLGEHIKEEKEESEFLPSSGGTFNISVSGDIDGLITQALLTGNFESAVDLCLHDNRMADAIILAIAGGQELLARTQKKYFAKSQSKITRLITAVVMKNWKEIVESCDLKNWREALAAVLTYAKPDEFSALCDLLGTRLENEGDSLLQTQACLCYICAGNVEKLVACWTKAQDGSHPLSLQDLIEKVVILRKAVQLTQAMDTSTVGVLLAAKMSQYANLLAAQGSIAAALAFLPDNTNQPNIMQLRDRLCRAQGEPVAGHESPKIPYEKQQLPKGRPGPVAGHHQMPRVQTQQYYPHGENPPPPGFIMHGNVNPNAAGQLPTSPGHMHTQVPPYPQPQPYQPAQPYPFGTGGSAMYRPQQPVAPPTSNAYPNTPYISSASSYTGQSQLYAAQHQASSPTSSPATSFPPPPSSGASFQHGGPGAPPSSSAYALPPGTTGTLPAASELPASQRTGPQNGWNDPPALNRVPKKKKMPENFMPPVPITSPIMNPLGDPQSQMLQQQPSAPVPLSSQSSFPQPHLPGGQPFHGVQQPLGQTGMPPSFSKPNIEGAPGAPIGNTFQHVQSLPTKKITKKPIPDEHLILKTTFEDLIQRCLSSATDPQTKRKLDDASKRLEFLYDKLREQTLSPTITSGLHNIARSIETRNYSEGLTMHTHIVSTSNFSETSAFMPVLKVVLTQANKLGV

[1] = target: T2, ATG9a (human (endogenous in BMSCs)) (UniProt Q7Z3C6); experiment: co-IP; endogenous proteins of BMSC lysate (NP-40 lysis buffer, 0.5 mg extract) immunoprecipitated with anti-ATG9a on magnetic beads, 4 °C overnight, five washes, western blot; cells with or without osteogenic induction (ODM), or transfected with Sar1a H79G or T39N vectors
T2 sequence: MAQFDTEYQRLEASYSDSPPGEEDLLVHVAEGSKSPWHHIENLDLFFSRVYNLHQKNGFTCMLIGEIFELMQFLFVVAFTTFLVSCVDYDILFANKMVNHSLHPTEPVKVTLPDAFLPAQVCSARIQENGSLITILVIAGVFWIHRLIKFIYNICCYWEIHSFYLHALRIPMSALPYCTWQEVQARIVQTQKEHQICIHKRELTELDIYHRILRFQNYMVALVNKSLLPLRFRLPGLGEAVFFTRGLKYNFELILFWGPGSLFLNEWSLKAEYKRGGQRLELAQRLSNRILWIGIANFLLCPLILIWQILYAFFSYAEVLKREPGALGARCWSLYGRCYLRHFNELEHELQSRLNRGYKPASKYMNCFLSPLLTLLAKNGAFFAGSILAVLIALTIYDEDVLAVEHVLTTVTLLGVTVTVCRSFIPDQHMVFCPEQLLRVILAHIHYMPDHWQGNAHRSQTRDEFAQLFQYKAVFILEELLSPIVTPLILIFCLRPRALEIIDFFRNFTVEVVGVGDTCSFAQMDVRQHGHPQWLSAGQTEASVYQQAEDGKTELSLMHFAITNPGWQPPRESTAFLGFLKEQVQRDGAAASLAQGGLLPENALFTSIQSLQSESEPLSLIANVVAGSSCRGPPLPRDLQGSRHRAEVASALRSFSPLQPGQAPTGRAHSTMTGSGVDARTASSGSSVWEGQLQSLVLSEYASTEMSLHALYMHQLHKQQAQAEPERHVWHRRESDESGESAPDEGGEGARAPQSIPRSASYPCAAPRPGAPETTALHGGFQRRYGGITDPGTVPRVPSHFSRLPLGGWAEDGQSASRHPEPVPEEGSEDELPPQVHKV

mClover‐ATG9a = target: T3, mClover‐ATG9a (UniProt Q7Z3C6); experiment: FRET or BRET; BMSCs with or without osteogenic induction (ODM) transfected with mClover-ATG9a and mRuby-SEC31a; donor and acceptor images before and after photobleaching
T3 sequence: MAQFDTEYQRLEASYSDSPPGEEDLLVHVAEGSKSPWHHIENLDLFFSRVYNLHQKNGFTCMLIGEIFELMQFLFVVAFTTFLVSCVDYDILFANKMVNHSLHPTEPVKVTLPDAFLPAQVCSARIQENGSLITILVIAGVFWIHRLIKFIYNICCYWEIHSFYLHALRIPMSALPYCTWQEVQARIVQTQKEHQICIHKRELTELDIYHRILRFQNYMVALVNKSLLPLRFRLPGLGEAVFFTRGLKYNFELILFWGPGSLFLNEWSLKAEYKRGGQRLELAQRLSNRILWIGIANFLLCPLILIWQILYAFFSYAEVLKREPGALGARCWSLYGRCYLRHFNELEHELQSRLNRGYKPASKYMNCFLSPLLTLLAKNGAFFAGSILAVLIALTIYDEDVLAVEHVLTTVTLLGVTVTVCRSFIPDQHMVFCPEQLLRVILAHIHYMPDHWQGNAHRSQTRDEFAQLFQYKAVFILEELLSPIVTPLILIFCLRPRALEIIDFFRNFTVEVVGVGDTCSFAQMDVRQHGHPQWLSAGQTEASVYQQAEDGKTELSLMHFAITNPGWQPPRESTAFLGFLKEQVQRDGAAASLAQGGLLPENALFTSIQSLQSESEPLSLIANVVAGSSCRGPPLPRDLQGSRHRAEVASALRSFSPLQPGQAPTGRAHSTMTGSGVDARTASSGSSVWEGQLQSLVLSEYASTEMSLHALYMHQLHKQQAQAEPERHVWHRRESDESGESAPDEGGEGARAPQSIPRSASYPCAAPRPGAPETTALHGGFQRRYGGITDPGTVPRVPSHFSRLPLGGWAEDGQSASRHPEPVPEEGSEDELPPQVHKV

- binding (SEC31a‐FLAG): binds
B1: ATG9‐HA (protein, UniProt Q7Z3C6 1-839)
chain: MAQFDTEYQRLEASYSDSPPGEEDLLVHVAEGSKSPWHHIENLDLFFSRVYNLHQKNGFTCMLIGEIFELMQFLFVVAFTTFLVSCVDYDILFANKMVNHSLHPTEPVKVTLPDAFLPAQVCSARIQENGSLITILVIAGVFWIHRLIKFIYNICCYWEIHSFYLHALRIPMSALPYCTWQEVQARIVQTQKEHQICIHKRELTELDIYHRILRFQNYMVALVNKSLLPLRFRLPGLGEAVFFTRGLKYNFELILFWGPGSLFLNEWSLKAEYKRGGQRLELAQRLSNRILWIGIANFLLCPLILIWQILYAFFSYAEVLKREPGALGARCWSLYGRCYLRHFNELEHELQSRLNRGYKPASKYMNCFLSPLLTLLAKNGAFFAGSILAVLIALTIYDEDVLAVEHVLTTVTLLGVTVTVCRSFIPDQHMVFCPEQLLRVILAHIHYMPDHWQGNAHRSQTRDEFAQLFQYKAVFILEELLSPIVTPLILIFCLRPRALEIIDFFRNFTVEVVGVGDTCSFAQMDVRQHGHPQWLSAGQTEASVYQQAEDGKTELSLMHFAITNPGWQPPRESTAFLGFLKEQVQRDGAAASLAQGGLLPENALFTSIQSLQSESEPLSLIANVVAGSSCRGPPLPRDLQGSRHRAEVASALRSFSPLQPGQAPTGRAHSTMTGSGVDARTASSGSSVWEGQLQSLVLSEYASTEMSLHALYMHQLHKQQAQAEPERHVWHRRESDESGESAPDEGGEGARAPQSIPRSASYPCAAPRPGAPETTALHGGFQRRYGGITDPGTVPRVPSHFSRLPLGGWAEDGQSASRHPEPVPEEGSEDELPPQVHKV

- binding [1]: binds
B2: SEC31a (protein, UniProt O94979 1-1220)
chain: MKLKEVDRTAMQAWSPAQNHPIYLATGTSAQQLDATFSTNASLEIFELDLSDPSLDMKSCATFSSSHRYHKLIWGPYKMDSKGDVSGVLIAGGENGNIILYDPSKIIAGDKEVVIAQNDKHTGPVRALDVNIFQTNLVASGANESEIYIWDLNNFATPMTPGAKTQPPEDISCIAWNRQVQHILASASPSGRATVWDLRKNEPIIKVSDHSNRMHCSGLAWHPDVATQMVLASEDDRLPVIQMWDLRFASSPLRVLENHARGILAIAWSMADPELLLSCGKDAKILCSNPNTGEVLYELPTNTQWCFDIQWCPRNPAVLSAASFDGRISVYSIMGGSTDGLRQKQVDKLSSSFGNLDPFGTGQPLPPLQIPQQTAQHSIVLPLKKPPKWIRRPVGASFSFGGKLVTFENVRMPSHQGAEQQQQQHHVFISQVVTEKEFLSRSDQLQQAVQSQGFINYCQKKIDASQTEFEKNVWSFLKVNFEDDSRGKYLELLGYRKEDLGKKIALALNKVDGANVALKDSDQVAQSDGEESPAAEEQLLGEHIKEEKEESEFLPSSGGTFNISVSGDIDGLITQALLTGNFESAVDLCLHDNRMADAIILAIAGGQELLARTQKKYFAKSQSKITRLITAVVMKNWKEIVESCDLKNWREALAAVLTYAKPDEFSALCDLLGTRLENEGDSLLQTQACLCYICAGNVEKLVACWTKAQDGSHPLSLQDLIEKVVILRKAVQLTQAMDTSTVGVLLAAKMSQYANLLAAQGSIAAALAFLPDNTNQPNIMQLRDRLCRAQGEPVAGHESPKIPYEKQQLPKGRPGPVAGHHQMPRVQTQQYYPHGENPPPPGFIMHGNVNPNAAGQLPTSPGHMHTQVPPYPQPQPYQPAQPYPFGTGGSAMYRPQQPVAPPTSNAYPNTPYISSASSYTGQSQLYAAQHQASSPTSSPATSFPPPPSSGASFQHGGPGAPPSSSAYALPPGTTGTLPAASELPASQRTGPQNGWNDPPALNRVPKKKKMPENFMPPVPITSPIMNPLGDPQSQMLQQQPSAPVPLSSQSSFPQPHLPGGQPFHGVQQPLGQTGMPPSFSKPNIEGAPGAPIGNTFQHVQSLPTKKITKKPIPDEHLILKTTFEDLIQRCLSSATDPQTKRKLDDASKRLEFLYDKLREQTLSPTITSGLHNIARSIETRNYSEGLTMHTHIVSTSNFSETSAFMPVLKVVLTQANKLGV

- binding (mClover‐ATG9a): binds
B3: mRuby‐SEC31a (protein, UniProt O94979 1-1220)
chain: MKLKEVDRTAMQAWSPAQNHPIYLATGTSAQQLDATFSTNASLEIFELDLSDPSLDMKSCATFSSSHRYHKLIWGPYKMDSKGDVSGVLIAGGENGNIILYDPSKIIAGDKEVVIAQNDKHTGPVRALDVNIFQTNLVASGANESEIYIWDLNNFATPMTPGAKTQPPEDISCIAWNRQVQHILASASPSGRATVWDLRKNEPIIKVSDHSNRMHCSGLAWHPDVATQMVLASEDDRLPVIQMWDLRFASSPLRVLENHARGILAIAWSMADPELLLSCGKDAKILCSNPNTGEVLYELPTNTQWCFDIQWCPRNPAVLSAASFDGRISVYSIMGGSTDGLRQKQVDKLSSSFGNLDPFGTGQPLPPLQIPQQTAQHSIVLPLKKPPKWIRRPVGASFSFGGKLVTFENVRMPSHQGAEQQQQQHHVFISQVVTEKEFLSRSDQLQQAVQSQGFINYCQKKIDASQTEFEKNVWSFLKVNFEDDSRGKYLELLGYRKEDLGKKIALALNKVDGANVALKDSDQVAQSDGEESPAAEEQLLGEHIKEEKEESEFLPSSGGTFNISVSGDIDGLITQALLTGNFESAVDLCLHDNRMADAIILAIAGGQELLARTQKKYFAKSQSKITRLITAVVMKNWKEIVESCDLKNWREALAAVLTYAKPDEFSALCDLLGTRLENEGDSLLQTQACLCYICAGNVEKLVACWTKAQDGSHPLSLQDLIEKVVILRKAVQLTQAMDTSTVGVLLAAKMSQYANLLAAQGSIAAALAFLPDNTNQPNIMQLRDRLCRAQGEPVAGHESPKIPYEKQQLPKGRPGPVAGHHQMPRVQTQQYYPHGENPPPPGFIMHGNVNPNAAGQLPTSPGHMHTQVPPYPQPQPYQPAQPYPFGTGGSAMYRPQQPVAPPTSNAYPNTPYISSASSYTGQSQLYAAQHQASSPTSSPATSFPPPPSSGASFQHGGPGAPPSSSAYALPPGTTGTLPAASELPASQRTGPQNGWNDPPALNRVPKKKKMPENFMPPVPITSPIMNPLGDPQSQMLQQQPSAPVPLSSQSSFPQPHLPGGQPFHGVQQPLGQTGMPPSFSKPNIEGAPGAPIGNTFQHVQSLPTKKITKKPIPDEHLILKTTFEDLIQRCLSSATDPQTKRKLDDASKRLEFLYDKLREQTLSPTITSGLHNIARSIETRNYSEGLTMHTHIVSTSNFSETSAFMPVLKVVLTQANKLGV
